Consider 29 sequences from PubChem BioAssay AID1347423 (Functional Genomics Laboratory (NCATS/FGL), 2020).

In all, about 52,000 sequences went through this assay and about 210 (0.4%) were called active.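 The calls were made as follows: active = gene whose silencing raises cell survival under the drug, median off-target-corrected z-score across its silencing RNAs 2 or more; inactive = the rest.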 This is one part of the list.

This assay in a line: Resistance to Poly (ADP-Ribose) Polymerase inhibitor: Gene Identification via Genome-wide siRNA Screen. The note with it: mouse BRCA2 R2336H ES cells, olaparib, CellTiter-Glo viability; stronger effect = higher value. In a few lines: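 Mouse BRCA2 R2336H ES cells were reverse-transfected with siRNA (20 nM final), treated at 48 h with 500 nM olaparib, and read by CellTiter-Glo after 72 h. Scores: MAD-based z per siRNA, median per gene, seed off-target correction.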
GCGAGUAAUUUCGUUUCCCTT against Hoxd3: the z-score is inactive: 0.0831.
As to GGUUCUGAAGAUGGAGGUUTT against Ttbk1, the z-score is inactive: -1.25.
For the sequence GCAUCAAAAAAAAUUCGUGTT against Dpysl2, the z-score was inactive: -0.454.
Take GGCUAAUCCACUCUGAGUATT against Wasl: the z-score is inactive: 0.416.
As for GCCUGGCUAGAAAUGUGGUTT against Fprl1, the figure is inactive: 0.157; as for GGCAGUUCCUGGAUUACCUTT against Il5, inactive: 0.711; as for GGCUGUGAAGAACUGGCAGTT against Rnaseh2a, inactive: 0.859.
In the case of GCGAACCAAAAUUGAGUUUTT against Hcngp it was inactive: 1.31; in that of GGUGUCCACAUUAAAUUACTT against Foxb1, inactive: 3.51; in that of UUGGGAUGGGUCAUGCCUUTT against LOC381806, inactive: 1.68.
As for GGUGUUCUUAAUGAGAUUCTT against Gdf5, the figure is inactive: -0.309; as for GGCCUAAACACGGUUUUCATT against C79127, inactive: -2.14; as for “CGAAAACCUUGCCACUGAGTT against 2810427I04Rik”, inactive: 2.97.
As for GGUGGAACAACUGUUUCAATT against Dyrk3, the z-score was inactive: 0.722.
Turning to AUGAAGUCGUUGUUCUCAUTT against Olfr918, the z-score was inactive: -1.05.
As for CCUGGAAGUUUUGAGACACTT against AI839562, the figure is inactive: 1.32; as for “GGAUACAAAUCAGGUUCUCTT against 2310037I24Rik”, inactive: -1.71; as for “GGAUCCUGUUAAGAUUAUCTT against 2900006B13Rik”, inactive: 1.17.
As for GGCAUCUGACGAUAAUGAUTT against Lman2l, the figure is inactive: 1.13; as for GGAUGAAAUCUCUAUCCUCTT against BC029169, inactive: 0.136; as for GGAAAUGGCUCAUUUUAUCTT against Tmem32, inactive: 1.56.
Take CGAUUUCCUUGGCACCAAUTT against Arhgap1: the z-score is inactive: -0.998.
On to GCAACUACGUGUUCGUGUUTT against Rabac1, for which the z-score was inactive: 0.916.
In the case of GCAAAUCGACCACUUUCCGTT against Cacng2 it was inactive: 1.21; in that of “GGUUUUUGAGUGGGAGACCTT against 2410004A20Rik”, inactive: -0.0378.
In the case of GCACGAUCUUCCAAACCCUTT against Dhh it was inactive: 0.413.
In the case of GCUGCACCAUCAAUUCCCATT against Vpreb3 it was inactive: -1.68; in that of GGUGUCAACUUUAUUCUUUTT against Rab1, inactive: 0.314; in that of GGUUCAAAAGUCGAGCGAATT against Nudt9, inactive: 0.425.
